Values quoted from earlier work, collected in patent US7241611B2, “Methods for synthesis of holo-photoactive yellow protein” (Universiteit Gent, priority 2002, dated 2007).

Legend:
[1] = tested on: TAL enzyme by mutagenesis of the yeast Rhodotorula glutinis PAL/TAL enzyme; settings: cited from earlier work
[2] = target: PAL-1 isozyme from parsley (Petroselinum crispum) (Petroselinum crispum, UniProt P24481); settings: cited from earlier work

In the case of N[C@@H](Cc1ccc(O)cc1)C(=O)O [L-Tyrosine, L-tyrosine], the “ratio of TAL activity to PAL activity” value [1] is given as 1.7 and the Km [2] is given as 2500 µM.
